Test: Determination of therapeutic index
Assay type: in vivo, rat
Details: Cumulative convulsion dose/(20×ED50AA)

Row | Structure (SMILES) | Therapeutic index
1 | COc1ccc(CCO[C@H]2CCCCC2N2CCCC2)cc1OC.Cl (stereo partly drawn) [Compound 10, 1-{(1R,2R)/(1S,2S)-2-[2-(3,4-dimethoxyphenyl)-ethoxy]cyclohexyl}-pyrrolidine hydrochloride] | 4.4
2 | COc1ccc(CCOC2CCCC[C@H]2N2CC=CC2)cc1OC.Cl (stereo partly drawn) [Compound 16, 1-{(1R,2R)/(1S,2S)-2-[2-(3,4-dimethoxyphenyl)-ethoxy]cyclohexyl}-2,5-dihydro-1H-pyrrole hydrochloride] | 0.9
3 | COc1ccc(CCCO[C@H]2CCCCC2N2CCOCC2)cc1OC.Cl (stereo partly drawn) [Compound 19, 4-{(1R,2R)/(1S,2S)-2-[3-(3,4-dimethoxyphenyl)-propoxy]cyclohexyl}morpholine hydrochloride] | 3.6

Source: patent US20070099983A1, “Aminocyclohexyl ether compounds and uses thereof” (Cardiome Pharma Corp., priority 2003, published 2007)
